Patent US6329338A (Meiji Seika Kaisha, Ltd., priority 1995, dated 2001)

Assay: peptide synthesis
Conditions: coupling step

Q: For “Boc-MeLeu-Lac-MeLeu-(NH2 CO)PhLac-MeLeu-Lac-MeLeu-(NH2 CO)PhLac-OBn”, which step yield is on record?
A: 63.1%

Q: With “Boc-MeLeu-Lac-MeLeu-PhLac-MeLeu-Lac-MeLeu-(NH2 CO)PhLac-OBn” as the substance, how does the step yield read?
A: 82.2%

Same assay, conditions: cyclisation step

Q: For Cyclo[MeLeu-Lac-MeLeu-(NH2 CO)PhLac]2, which cyclisation yield is on record?
A: 65.4%

Q: With “Cyclo[MeLeu-Lac-MeLeu-PhLac-MeLeu-Lac-MeLeu-(NH2 CO)PhLac]” as the substance, how does the cyclisation yield read?
A: 63.3%

Same assay, conditions: late stage modification step

Q: Which step yield does the source give for Boc-MeLeu-Lac-MeLeu-(NH2 CO)PhLac-OH here?
A: 99.1%

Q: With “Cyclo[MeLeu-((CH3 OCH2 CH2)2 NCH2 CH2 O)PhLac-MeLeu-Lac-MeLeu-PhLac-MeLeu-Lac]” as the substance, how does the step yield read?
A: 30.6%

Q: Which step yield does the source give for “Cyclo[MeLeu-(MorCH2 CH2 O)PhLac-MeLeu-Lac-MeLeu-PhLac-MeLeu-Lac]” here?
A: 41%

Q: Which step yield does the source give for “Cyclo[MeLeu-(p-Mor)PhLac-MeLeu-Lac-MeLeu-PhLac-MeLeu-Lac]” here?
A: 37%

Q: For “Cyclo[MeLeu-Lac-MeLeu((CH3)2 NCH2 CH2 O)PhLac-MeLeu-Lac-MeLeu-PhLac]”, which step yield is on record?
A: 68.5%

Q: For “Cyclo[MeLeu-Lac-MeLeu(Bu2 NCH2 CH2 O)PhLac-MeLeu-Lac-MeLeu-PhLac]”, which step yield is on record?
A: 44%

Q: Which step yield does the source give for “Cyclo[MeLeu-Lac-MeLeu-(2-picolyloxy)PhLac-MeLeu-Lac-MeLeu-PhLac]” here?
A: 76.5%

Q: For “Cyclo[MeLeu-Lac-MeLeu-(2-picolyloxy)PhLac]2”, which step yield is on record?
A: 50%

Q: Which step yield does the source give for “Cyclo[MeLeu-Lac-MeLeu-(3-(5-cyclohexyl-1,2,4-oxadiazolyl)-methoxy)PhLac-MeLeu-Lac-MeLeu-PhLac]” here?
A: 74%

Q: Which step yield does the source give for “Cyclo[MeLeu-Lac-MeLeu-(3-(5-cyclohexyl-1,2,4-oxadiazolyl)-methoxy)PhLac]. sub.2” here?
A: 25%

Q: Which step yield does the source give for “Cyclo[MeLeu-Lac-MeLeu-(3-(5-isobutyl-1,2,4-oxadiazolyl)-methoxy)PhLac-MeLeu-Lac-MeLeu-PhLac]” here?
A: 81%

Q: For “Cyclo[MeLeu-Lac-MeLeu-(3-(5-isobutyl-1,2,4-oxadiazolyl)-methoxy)PhLac]2”, which step yield is on record?
A: 72.8%

Q: Which step yield does the source give for “Cyclo[MeLeu-Lac-MeLeu-(3-(5-isopropyl-1,2,4-oxadiazolyl)-methoxy)PhLac-MeLeu-Lac-MeLeu-PhLac]” here?
A: 71%

Q: Which step yield does the source give for “Cyclo[MeLeu-Lac-MeLeu-(3-(5-isopropyl-1,2,4-oxadiazolyl)-methoxy)PhLac]. sub.2” here?
A: 27.3%

Q: Which step yield does the source give for “Cyclo[MeLeu-Lac-MeLeu-(3-(5-methyl-1,2,4-oxadiazolyl)-methoxy)PhLac-MeLeu-Lac-MeLeu-PhLac]” here?
A: 79%

Q: With “Cyclo[MeLeu-Lac-MeLeu-(6-chloro-3-picolyloxy)PhLac-MeLeu-Lac-MeLeu-PhLac]” as the substance, how does the step yield read?
A: 76%

Q: Which step yield does the source give for “Cyclo[MeLeu-Lac-MeLeu-((C2 H5)2 NCH2 CH2 CH2 O)PhLac-MeLeu-Lac-MeLeu-PhLac]” here?
A: 73%

Q: For “Cyclo[MeLeu-Lac-MeLeu-((C2 H5)2 NCH2 CH2 O)PhLac-MeLeu-Lac-MeLeu-PhLac]”, which step yield is on record?
A: 66.7%

Q: Which step yield does the source give for “Cyclo[MeLeu-Lac-MeLeu-((C2 H5)N(Cbz)CH2 CH2 CH2 O)PhLac-MeLeu-Lac-MeLeu-PhLac]” here?
A: 77%

Q: Which step yield does the source give for “Cyclo[MeLeu-Lac-MeLeu-((CH3)2 NCH2 CH2 O)PhLac]2” here?
A: 48%

Q: With “Cyclo[MeLeu-Lac-MeLeu-((CH3)2 NCH2 CH2 OCO)PhLac-MeLeu-Lac-MeLeu-PhLac]” as the substance, how does the step yield read?
A: 66.9%

Q: Which step yield does the source give for “Cyclo[MeLeu-Lac-MeLeu-((CH3)2 NCO)PhLac-MeLeu-Lac-MeLeu-PhLac]” here?
A: 76.6%

Q: For “Cyclo[MeLeu-Lac-MeLeu-((S)-pyrrolidinyl-2-methoxy)PhLac-MeLeu-Lac-MeLeu-PhLac]”, which step yield is on record?
A: 51%

Q: Which step yield does the source give for “Cyclo[MeLeu-Lac-MeLeu-(BocNHCH2 CH2 O)PhLac-MeLeu-Lac-MeLeu-PhLac]” here?
A: 58.2%

Q: With “Cyclo[MeLeu-Lac-MeLeu-(BocNHCH2 CH2 O)PhLac]2” as the substance, how does the step yield read?
A: 34%

Q: With “Cyclo[MeLeu-Lac-MeLeu-(H2 N)PhLac-MeLeu-Lac-MeLeu-PhLac]” as the substance, how does the step yield read?
A: 39.4%

Q: For “Cyclo[MeLeu-Lac-MeLeu-(MorCH2 CH2 OCO)PhLac-MeLeu-Lac-MeLeu-PhLac]”, which step yield is on record?
A: 49.8%

Q: Which step yield does the source give for “Cyclo[MeLeu-Lac-MeLeu-(N-BOC-(S)-pyrrolidinyl-2-methoxy)PhLac-MeLeu-Lac-MeLeu-PhLac]” here?
A: 64.8%

Q: Which step yield does the source give for “Cyclo[MeLeu-Lac-MeLeu-(N-Boc-imidazolyl-4-methoxy)PhLac-MeLeu-Lac-MeLeu-PhLac]” here?
A: 46.3%

Q: With “Cyclo[MeLeu-Lac-MeLeu-(NCCH2 O)PhLac-MeLeu-Lac-MeLeu-PhLac]” as the substance, how does the step yield read?
A: 94.4%

Q: With “Cyclo[MeLeu-Lac-MeLeu-(O2 N)PhLac-MeLeu-Lac-MeLeu-PhLac]” as the substance, how does the step yield read?
A: 35.5%

Q: Which step yield does the source give for “Cyclo[MeLeu-Lac-MeLeu-(PipCH2 CH2 O)PhLac-MeLeu-Lac-MeLeu-PhLac]” here?
A: 74%

Q: Which step yield does the source give for “Cyclo[MeLeu-Lac-MeLeu-(Pr2 NCH2 CH2 O)PhLac-MeLeu-Lac-MeLeu-PhLac]” here?
A: 54%

Q: Which step yield does the source give for “Cyclo[MeLeu-Lac-MeLeu-(PyrCH2 CH2 O)PhLac-MeLeu-Lac-MeLeu-PhLac]” here?
A: 39%

Q: With “Cyclo[MeLeu-Lac-MeLeu-(furfuryloxy)PhLac-MeLeu-Lac-MeLeu-PhLac]” as the substance, how does the step yield read?
A: 50.6%

Q: For “Cyclo[MeLeu-Lac-MeLeu-(imidazolyl-4-methoxy)PhLac-MeLeu-Lac-MeLeu-PhLac]”, which step yield is on record?
A: 61.2%

Q: For Cyclo[MeLeu-Lac-MeLeu-(t-BuO)PhLac]2, which step yield is on record?
A: 35.7%

Q: For “Cyclo[MeLeu-Lac-MeLeu-(tetrahydrofurfuryloxy)PhLac-MeLeu-Lac-MeLeu-PhLac]”, which step yield is on record?
A: 45.6%

Q: For “H-MeLeu-Lac-MeLeu-(NH2 CO)PhLac-MeLeu-Lac-MeLeu-(NH2 CO)-PhLac-OBn”, which step yield is on record?
A: 99%

Q: With “H-MeLeu-Lac-MeLeu-(NH2 CO)PhLac-MeLeu-Lac-MeLeu-(NH2 CO)PhLac-OH” as the substance, how does the step yield read?
A: 95.9%

Q: Which step yield does the source give for H-MeLeu-Lac-MeLeu-(NH2 CO)PhLac-OBn here?
A: 97.9%

Q: For “H-MeLeu-Lac-MeLeu-PhLac-MeLeu-Lac-MeLeu-(NH2 CO)PhLac-OBn”, which step yield is on record?
A: 100%

Q: Which step yield does the source give for “H-MeLeu-Lac-MeLeu-PhLac-MeLeu-Lac-MeLeu-(NH2 CO)PhLac-OH” here?
A: 93.0%
